Laboratory results taken from patent US20120214734A1, “TREATMENT OF METABOLIC DISORDERS” (priority 2011, published 2012).
At least one compound was matched to its structure with a doubt left.

Assay: Retrospective screen of chronic-care charts of obese hypertensive prisoners: random serum glucose, fasting lipid panel, blood pressure, weight
Type: in vivo, human
From the text: One-hundred ten (110) patient charts in chronic care for hypertension at an 1800-capacity prison were initially screened. The data included age, weight, height, ethnicity, medications, lipid panel results for glucose, triglycerides and HDL-C, and blood pressure. All known or previously diagnosed diabetics were excluded from the study.
For cases involving ACE inhibitor plus simvastatin, further analysis included evaluation of total cholesterol and calculated low density lipoprotein (LDL-C).
In order to evaluate the effects of simvastatin without ACE inhibitor, 5 additional charts were screened (increasing n to 13).
The data were analyzed with respect to random serum lab values including random serum glucose and fasting lipid panel (which included total cholesterol, HDL-C, TG, and the calculated LDL-C). […] In addition, a few charts were evaluated for temporal changes spanning chronic care visits including weight, mean arterial blood pressure, medication adjustments, and random serum values of HDL-C, triglycerides, and glucose. A two-tailed student t test was used to test for significance between 2 sample means. Linear regression analysis with F statistic was used to obtain goodness of fit. Only coefficients of determination (r2) of 0.1 or greater were reported. […] The level of significance used was a probability (P)<0.05.

[1] = age-matched controls (>age 37) with vs without simvastatin, no ACE-I

Q: For `CCC(C)(C)C(=O)O[C@H]1C[C@@H](C)C=C2C=C[C@H](C)[C@H](CC[C@@H]3C[C@@H](O)CC(=O)O3)[C@H]21` [simvastatin], which “mean HDL-C” value [1] is on record?
A: no significant difference

Q: And the mean glucose [1]?
A: no significant difference

Q: And the mean triglyceride [1]?
A: no significant difference

Q: What about the “random serum HDL-C with age” value (n=13, regression y (HDL-C)=0.2x(years)+26.8) of the same molecule?
A: did not significantly affect

Q: And the “effect of ACE-I on glucose” value (simvastatin at 25 mg/day together with ACE-I, FIG. 8B)?
A: decreasing the effect

Q: What about the “inhibition of hypertriglyceridemia by ACE inhibitor” value (simvastatin together with ACE inhibitor) of the same molecule?
A: not blocked

Q: And the “effect of ACE-I on HDL-C” value (simvastatin together with ACE-I, FIG. 8B)?
A: significantly (P<0.01) decreased the effect
